The exact form of at least one protein or probe is not confirmed. For some of these results: The comparison behind a weaker result is the experiment's own reference, which may not be listed here.
Assays:
[1] = target: p53 wild-type (Homo sapiens) (UniProt P04637); assay: EMSA; settings: protein translated in vitro, label: 32P
[2] = target: p53LZ346E (Homo sapiens / Saccharomyces cerevisiae) (UniProt P04637); assay: EMSA; settings: protein translated in vitro; label: 32P
[3] = target: p53LZ347 (Homo sapiens / Saccharomyces cerevisiae) (UniProt P04637); assay: EMSA; settings: protein translated in vitro; label: 32P
[4] = target: p53TZ323RGN (Homo sapiens / Saccharomyces cerevisiae) (UniProt P04637); assay: EMSA; settings: protein translated in vitro; label: 32P
[5] = target: p53TZ334N (Homo sapiens / Saccharomyces cerevisiae) (UniProt P04637); assay: EMSA; settings: protein translated in vitro; label: 32P
[6] = target: p53 wild-type (Saos-2) (Homo sapiens) (UniProt P04637); assay: activity in cells; settings: SEAP reporter, 1640 in Exp 3, protein in cells, only the site is given
[7] = target: p53LZ346E (Saos-2) (Homo sapiens / Saccharomyces cerevisiae) (UniProt P04637); assay: activity in cells; settings: SEAP reporter, protein in cells, only the site is given
[8] = target: p53TZ334N (Saos-2) (Homo sapiens / Saccharomyces cerevisiae) (UniProt P04637); assay: activity in cells; settings: SEAP reporter, protein in cells, only the site is given
[9] = target: p53LZ335Q (Homo sapiens / Saccharomyces cerevisiae) (UniProt P04637); assay: EMSA; settings: protein translated in vitro; label: 32P
[10] = target: p53LZ343 (Homo sapiens / Saccharomyces cerevisiae) (UniProt P04637); assay: EMSA; settings: protein translated in vitro; label: 32P

## CCCGAACATGTCCCAACATGTTGGGG (double strand) [Ewaf1]
[1]
  binding result: binds more weakly
[2]
  binding result: binds
[3]
  binding result: binds
[4]
  binding result: binds
[5]
  binding result: binds
[6]
  activity on this sequence (relative units): 1990
[7]
  activity on this sequence (relative units): 520
[8]
  activity on this sequence (relative units): 1480

## CCGGGCATGTCCGGGCATGTCCGGGCATGT (double strand) [BC]
[9]
  binding result: binds
[10]
  binding result: binds
[2]
  binding result: binds
[3]
  binding result: binds
[4]
  binding result: binds
[5]
  binding result: binds
[8]
  activity on this sequence (relative units): 2550

## TATGGGCATGTCCTATATATATGCGTATATATATGGGCATGTCCTAT (double strand) [BC.S21]
[1]; variant of BC
  binding result: binds

From patent US5573925
